Laboratory results from article PMC4721547, “Cyclophilin40 isomerase activity is regulated by a temperature-dependent allosteric interaction with Hsp90” (Bioscience Reports, 2015).
No constants are given. Whether binding was seen depends on the method and setting. Some entries that bind do so weakly or less than the wild type.

By UniProt entry, the sequences of proteins in these tests, tags left out.
UniProt Q08752: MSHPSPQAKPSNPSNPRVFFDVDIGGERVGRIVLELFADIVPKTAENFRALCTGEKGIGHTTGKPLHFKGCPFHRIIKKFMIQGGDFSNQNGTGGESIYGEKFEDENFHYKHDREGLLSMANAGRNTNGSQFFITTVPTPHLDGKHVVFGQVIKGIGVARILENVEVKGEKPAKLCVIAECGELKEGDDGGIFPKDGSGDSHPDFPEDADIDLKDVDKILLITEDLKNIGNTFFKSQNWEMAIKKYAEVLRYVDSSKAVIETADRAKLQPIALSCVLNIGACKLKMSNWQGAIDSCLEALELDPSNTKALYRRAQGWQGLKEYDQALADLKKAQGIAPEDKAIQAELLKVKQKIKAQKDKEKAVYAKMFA

Legend:
[1] = target: Cyclophilin 40 (human; pDEST14-6H-TEV-hCyp40) (human) (UniProt Q08752); experiment: thermal denaturation fluorescence; 2 uM Cyp40 apo, with 250 uM SRMEEVD, with 4 uM CsA, or with both; 50 mM Hepes pH 8, 100 mM sodium chloride, 1 mM DTT; 25-70 °C; both purified
[2] = target: Cyclophilin 40 (human; pDEST14-6H-TEV-hCyp40) (human) (UniProt Q08752); experiment: intrinsic tryptophan fluorescence; 1 uM Cyp40 apo and after addition of 250 uM SRMEEVD; 15-45 °C at 5 °C intervals; 50 mM Hepes pH 8, 100 mM sodium chloride, 1 mM DTT; excitation 295 nm, emission 310-400 nm; both purified

- binding [1]: binds
- binding [2]: binds
Binder: SRMEEVD (also called Hsp90 peptide; Hsp90 wt) [SRMEEVD peptide (Hsp90 wild-type C-terminal peptide)]
